Earlier results as cited in patent publication US9622975B2, “Pharmaceutical composition” (Novartis AG, priority 2005, dated 2017).
Some entries share one result that the patent states for a list of compounds. At least one structure is not confirmed: it was looked up by name or label, or the drawing left a doubt.

Details: such as the duodenum; whether ingested in micronized or coarse form

SMILES | absorbed by the gastro-intestinal tract
O=C(O)CCCCCCCNC(=O)c1ccccc1O [SNAC, N-(8-[2-hydroxybenzoyl]amino) caprylic acid] | greater than 90%
O=C(O)CCCCCCCNC(=O)c1cc(Cl)ccc1O [Example 5-CNAC, N-(5-chlorosalicyloyl)-8-aminocaprylic acid] | greater than 90%
